Measurements reported in article PMC9035706.
These are yes or no findings as the source states them, for the method shown. In cells and extracts the contact can be indirect. Some binding calls cover weakened binding; strength is not graded here. For some assays here: Where a sequence is shown, tags or fusion partners need not be part of it.

What was measured:
[1] = biological target: T1, PAICS tagged at its C terminus with SYFP2_(210-238) fragment (human) (UniProt P22234); experiment: split reporter; BiFC with SYFP2_(1-215) and SYFP2_(210-238) fragments in live WT HeLa cells, imaged 24 h after cotransfection at 37 °C, 5% CO2; signal judged against self-cleaving P2A control constructs; purine-depleted and purine-rich media gave essentially identical signals
T1 sequence: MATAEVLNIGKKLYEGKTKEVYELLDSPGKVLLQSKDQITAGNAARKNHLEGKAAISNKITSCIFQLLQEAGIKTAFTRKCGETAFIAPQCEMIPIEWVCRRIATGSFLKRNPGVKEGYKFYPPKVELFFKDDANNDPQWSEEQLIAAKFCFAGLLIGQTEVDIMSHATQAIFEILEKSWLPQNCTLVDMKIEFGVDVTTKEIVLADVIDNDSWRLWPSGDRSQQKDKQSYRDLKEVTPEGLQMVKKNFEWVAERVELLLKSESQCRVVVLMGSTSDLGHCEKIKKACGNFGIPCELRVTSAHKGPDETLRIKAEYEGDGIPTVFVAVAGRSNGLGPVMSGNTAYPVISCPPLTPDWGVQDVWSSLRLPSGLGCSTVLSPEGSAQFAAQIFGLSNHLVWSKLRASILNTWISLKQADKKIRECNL

[2] = biological target: T2, 2×Strep-PAICS (overexpressed in HEK293T) (human) (UniProt P22234); experiment: co-IP; anti-StrepTag affinity purification of StrepTag-labeled PAICS overexpressed in HEK293T cells grown in purine-depleted conditions; Western blot for endogenous PAICS
T2 sequence: T1 sequence

[3] = biological target: T3, PAICS-2×Strep (overexpressed in HEK293T) (human) (UniProt P22234); experiment: as above
T3 sequence: T1 sequence

[4] = biological target: T4, SYFP2_(210-238)-PAICS (human) (UniProt P22234); experiment: split reporter; BiFC with SYFP2_(1-215) and SYFP2_(210-238) fragments in live WT HeLa cells, imaged 24 h after cotransfection at 37 °C, 5% CO2; signal judged against self-cleaving P2A control constructs; purine-depleted and purine-rich media gave essentially identical signals
T4 sequence: T1 sequence

B1: PAICS C-terminal-labeled with SYFP2_(1-215) (enzyme, UniProt P22234 1-425)
chain: T1 sequence
- binding [1]: binds

B2: endogenous PAICS (HEK293T) (enzyme, UniProt P22234 1-425)
chain: T1 sequence
- binding [2]: binds
- binding [3]: binds

B3: SYFP2_(1-215)-PAICS (enzyme, UniProt P22234 1-425)
chain: T1 sequence
- binding [4]: binds

B4: SYFP2_(1-215)-ADSL (enzyme, UniProt P30566 1-484)
chain: MAAGGDHGSPDSYRSPLASRYASPEMCFVFSDRYKFRTWRQLWLWLAEAEQTLGLPITDEQIQEMKSNLENIDFKMAAEEEKRLRHDVMAHVHTFGHCCPKAAGIIHLGATSCYVGDNTDLIILRNALDLLLPKLARVISRLADFAKERASLPTLGFTHFQPAQLTTVGKRCCLWIQDLCMDLQNLKRVRDDLRFRGVKGTTGTQASFLQLFEGDDHKVEQLDKMVTEKAGFKRAFIITGQTYTRKVDIEVLSVLASLGASVHKICTDIRLLANLKEMEEPFEKQQIGSSAMPYKRNPMRSERCCSLARHLMTLVMDPLQTASVQWFERTLDDSANRRICLAEAFLTADTILNTLQNISEGLVVYPKVIERRIRQELPFMATENIIMAMVKAGGSRQDCHEKIRVLSQQAASVVKQEGGDNDLIERIQVDAYFSPIHSQLDHLLDPSSFTGRASQQVQRFLEEEVYPLLKPYESVMKVKAELCL
- binding [4]: binds
